Compound in assay [1]: ClCC(=O)N[C@@H]1CCCc2ccccc12
The assay can be described thus: log2 mean competition ratio of IA-DTB cysteine labelling (DMSO/compound) (log2 ratio); higher = stronger cysteine engagement by compound. Conditions: treatment time: 4 h, cell line lysate: HEK293T. The method, then:
(§1)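 IA-DTB competitive cysteine chemoproteomics in HEK293T RIPA lysate. Lysates were treated with compound 29 or 30 at 50 or 200 µM for 4 h, then IA-DTB (500 µM, 1 h), trypsin-digested, NeutrAvidin-enriched and analysed by diaPASEF. Competition ratio = intensity DMSO / intensity compound (n=4 treated, n=64 DMSO); binding: mean log2 CR ≥ 1 and p ≤ 0.05 plus QC filters. Target is the cysteine site.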

By UniProt entry, the sequences of proteins in these tests, tags left out. Where a name states a change or a piece, a line headed by the entry shows the natural chain unless it says otherwise. Residues count along the entry.
UniProt P53611: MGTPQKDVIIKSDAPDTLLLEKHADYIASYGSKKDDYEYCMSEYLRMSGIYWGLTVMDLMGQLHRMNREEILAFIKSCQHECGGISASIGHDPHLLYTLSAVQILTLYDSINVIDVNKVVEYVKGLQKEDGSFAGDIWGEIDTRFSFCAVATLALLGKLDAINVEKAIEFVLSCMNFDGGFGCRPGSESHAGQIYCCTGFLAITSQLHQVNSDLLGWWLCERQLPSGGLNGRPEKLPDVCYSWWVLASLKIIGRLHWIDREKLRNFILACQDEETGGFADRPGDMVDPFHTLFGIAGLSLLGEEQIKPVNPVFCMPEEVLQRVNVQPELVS
UniProt P60484: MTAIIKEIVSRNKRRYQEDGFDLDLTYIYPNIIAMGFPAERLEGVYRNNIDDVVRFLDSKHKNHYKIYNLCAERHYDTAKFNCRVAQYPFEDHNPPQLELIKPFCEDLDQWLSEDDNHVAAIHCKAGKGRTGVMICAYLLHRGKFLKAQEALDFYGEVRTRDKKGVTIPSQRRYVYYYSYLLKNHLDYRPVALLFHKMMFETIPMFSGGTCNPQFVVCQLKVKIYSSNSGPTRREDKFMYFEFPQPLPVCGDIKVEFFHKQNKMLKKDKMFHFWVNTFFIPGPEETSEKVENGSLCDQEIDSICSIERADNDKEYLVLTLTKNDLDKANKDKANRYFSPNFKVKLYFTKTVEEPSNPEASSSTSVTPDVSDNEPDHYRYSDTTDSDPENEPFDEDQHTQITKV
UniProt O15315: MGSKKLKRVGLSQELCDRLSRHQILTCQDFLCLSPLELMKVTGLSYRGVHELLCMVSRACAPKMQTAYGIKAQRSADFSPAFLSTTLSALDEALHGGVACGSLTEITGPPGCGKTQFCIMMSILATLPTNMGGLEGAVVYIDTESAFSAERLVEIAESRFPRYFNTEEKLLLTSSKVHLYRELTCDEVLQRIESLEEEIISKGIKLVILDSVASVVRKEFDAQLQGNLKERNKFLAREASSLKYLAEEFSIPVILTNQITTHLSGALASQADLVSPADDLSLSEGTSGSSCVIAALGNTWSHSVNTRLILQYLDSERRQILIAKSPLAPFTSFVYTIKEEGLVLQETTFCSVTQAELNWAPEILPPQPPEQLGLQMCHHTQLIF
UniProt Q93096: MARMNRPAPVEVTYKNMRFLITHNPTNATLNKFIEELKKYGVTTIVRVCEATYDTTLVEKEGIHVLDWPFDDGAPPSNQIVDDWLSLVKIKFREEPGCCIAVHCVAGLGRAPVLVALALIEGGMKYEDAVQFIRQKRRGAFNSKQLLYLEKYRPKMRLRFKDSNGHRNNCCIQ
UniProt P26045: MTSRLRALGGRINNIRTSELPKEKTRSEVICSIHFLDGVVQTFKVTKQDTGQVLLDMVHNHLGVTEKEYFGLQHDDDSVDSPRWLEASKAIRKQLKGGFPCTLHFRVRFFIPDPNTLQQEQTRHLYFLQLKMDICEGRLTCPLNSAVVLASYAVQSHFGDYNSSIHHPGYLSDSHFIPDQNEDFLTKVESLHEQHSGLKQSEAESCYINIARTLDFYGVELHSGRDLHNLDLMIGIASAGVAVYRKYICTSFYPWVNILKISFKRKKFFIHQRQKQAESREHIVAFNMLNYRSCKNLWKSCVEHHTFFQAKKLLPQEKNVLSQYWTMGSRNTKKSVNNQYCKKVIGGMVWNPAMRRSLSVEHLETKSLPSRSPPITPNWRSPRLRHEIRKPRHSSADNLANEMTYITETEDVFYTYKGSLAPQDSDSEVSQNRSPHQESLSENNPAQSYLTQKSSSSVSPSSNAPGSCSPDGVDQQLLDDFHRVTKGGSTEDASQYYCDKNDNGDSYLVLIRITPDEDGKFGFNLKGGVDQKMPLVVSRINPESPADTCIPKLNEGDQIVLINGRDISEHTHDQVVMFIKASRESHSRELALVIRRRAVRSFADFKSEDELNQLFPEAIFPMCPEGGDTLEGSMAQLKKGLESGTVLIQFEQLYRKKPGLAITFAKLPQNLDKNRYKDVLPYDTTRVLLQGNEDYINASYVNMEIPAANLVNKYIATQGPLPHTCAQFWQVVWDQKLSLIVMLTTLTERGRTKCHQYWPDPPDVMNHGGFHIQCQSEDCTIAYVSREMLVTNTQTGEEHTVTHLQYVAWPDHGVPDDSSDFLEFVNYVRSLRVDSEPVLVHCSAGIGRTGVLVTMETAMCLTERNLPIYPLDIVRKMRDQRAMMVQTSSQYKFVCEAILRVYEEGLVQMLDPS
UniProt Q96N64: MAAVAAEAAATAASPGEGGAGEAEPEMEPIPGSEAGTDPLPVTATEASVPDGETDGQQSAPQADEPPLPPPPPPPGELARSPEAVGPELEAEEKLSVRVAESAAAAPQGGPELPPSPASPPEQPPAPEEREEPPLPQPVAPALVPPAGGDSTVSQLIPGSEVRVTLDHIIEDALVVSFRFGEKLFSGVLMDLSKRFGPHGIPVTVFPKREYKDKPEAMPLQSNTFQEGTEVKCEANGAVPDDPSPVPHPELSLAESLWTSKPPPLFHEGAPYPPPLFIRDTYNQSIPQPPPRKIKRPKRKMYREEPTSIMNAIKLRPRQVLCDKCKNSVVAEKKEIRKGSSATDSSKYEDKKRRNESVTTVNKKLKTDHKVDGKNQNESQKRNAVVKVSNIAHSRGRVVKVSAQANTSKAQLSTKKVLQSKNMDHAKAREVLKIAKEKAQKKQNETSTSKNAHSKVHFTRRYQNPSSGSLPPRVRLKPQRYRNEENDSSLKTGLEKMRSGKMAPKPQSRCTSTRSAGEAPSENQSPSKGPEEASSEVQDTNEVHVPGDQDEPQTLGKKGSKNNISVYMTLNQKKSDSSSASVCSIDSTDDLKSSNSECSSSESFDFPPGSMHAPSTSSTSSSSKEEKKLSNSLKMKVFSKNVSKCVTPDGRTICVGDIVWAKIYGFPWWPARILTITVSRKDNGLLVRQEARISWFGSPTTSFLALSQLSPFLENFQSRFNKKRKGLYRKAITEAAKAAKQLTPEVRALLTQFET
UniProt Q9Y606: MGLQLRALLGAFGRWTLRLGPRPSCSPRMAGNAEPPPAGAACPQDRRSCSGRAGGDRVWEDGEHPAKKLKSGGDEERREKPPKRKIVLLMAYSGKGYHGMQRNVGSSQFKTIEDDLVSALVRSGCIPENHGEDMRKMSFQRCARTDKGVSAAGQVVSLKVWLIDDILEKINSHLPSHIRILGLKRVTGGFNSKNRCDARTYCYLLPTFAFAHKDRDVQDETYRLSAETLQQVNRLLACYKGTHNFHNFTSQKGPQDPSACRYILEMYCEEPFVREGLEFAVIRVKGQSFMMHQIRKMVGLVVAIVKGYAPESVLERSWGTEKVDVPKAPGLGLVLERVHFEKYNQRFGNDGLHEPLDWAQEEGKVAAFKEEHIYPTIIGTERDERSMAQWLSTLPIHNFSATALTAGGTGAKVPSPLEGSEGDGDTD
UniProt P23470: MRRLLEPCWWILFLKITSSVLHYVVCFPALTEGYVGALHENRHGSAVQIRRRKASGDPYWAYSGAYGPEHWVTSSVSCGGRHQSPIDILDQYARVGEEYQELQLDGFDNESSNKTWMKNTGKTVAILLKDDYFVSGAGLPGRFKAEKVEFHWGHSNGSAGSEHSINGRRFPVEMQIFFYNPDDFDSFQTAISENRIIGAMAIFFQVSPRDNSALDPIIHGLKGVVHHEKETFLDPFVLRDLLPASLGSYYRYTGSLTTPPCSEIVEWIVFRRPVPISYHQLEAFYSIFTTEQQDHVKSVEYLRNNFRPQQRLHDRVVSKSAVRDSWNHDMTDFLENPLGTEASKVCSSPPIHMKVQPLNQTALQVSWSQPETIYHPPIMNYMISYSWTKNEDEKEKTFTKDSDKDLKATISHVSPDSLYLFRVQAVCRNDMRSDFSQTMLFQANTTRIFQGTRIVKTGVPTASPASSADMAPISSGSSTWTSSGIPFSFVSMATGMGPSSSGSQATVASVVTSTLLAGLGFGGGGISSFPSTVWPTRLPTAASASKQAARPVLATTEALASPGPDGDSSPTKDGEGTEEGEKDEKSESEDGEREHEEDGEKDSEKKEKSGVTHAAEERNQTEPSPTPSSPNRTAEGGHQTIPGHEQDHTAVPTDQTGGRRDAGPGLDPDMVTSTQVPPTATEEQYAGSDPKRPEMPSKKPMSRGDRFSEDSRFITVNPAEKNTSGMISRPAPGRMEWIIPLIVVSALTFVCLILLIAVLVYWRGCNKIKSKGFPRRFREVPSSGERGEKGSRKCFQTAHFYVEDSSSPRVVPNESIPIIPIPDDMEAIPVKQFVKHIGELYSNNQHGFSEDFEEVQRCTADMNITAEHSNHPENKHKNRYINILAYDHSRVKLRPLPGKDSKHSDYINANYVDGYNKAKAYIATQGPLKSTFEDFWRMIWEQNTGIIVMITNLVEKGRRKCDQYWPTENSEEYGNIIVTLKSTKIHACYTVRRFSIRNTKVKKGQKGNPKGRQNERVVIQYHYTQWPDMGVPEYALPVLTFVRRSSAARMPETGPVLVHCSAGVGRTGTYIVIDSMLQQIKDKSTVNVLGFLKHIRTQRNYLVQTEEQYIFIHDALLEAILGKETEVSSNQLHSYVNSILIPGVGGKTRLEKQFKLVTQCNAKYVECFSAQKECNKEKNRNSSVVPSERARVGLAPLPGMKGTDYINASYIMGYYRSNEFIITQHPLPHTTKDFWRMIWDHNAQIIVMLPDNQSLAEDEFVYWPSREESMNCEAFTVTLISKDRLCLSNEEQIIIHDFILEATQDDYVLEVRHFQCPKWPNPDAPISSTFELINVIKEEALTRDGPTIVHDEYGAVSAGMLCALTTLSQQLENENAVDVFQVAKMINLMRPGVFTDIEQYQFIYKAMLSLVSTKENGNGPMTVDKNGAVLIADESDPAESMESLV
UniProt Q9H3S7: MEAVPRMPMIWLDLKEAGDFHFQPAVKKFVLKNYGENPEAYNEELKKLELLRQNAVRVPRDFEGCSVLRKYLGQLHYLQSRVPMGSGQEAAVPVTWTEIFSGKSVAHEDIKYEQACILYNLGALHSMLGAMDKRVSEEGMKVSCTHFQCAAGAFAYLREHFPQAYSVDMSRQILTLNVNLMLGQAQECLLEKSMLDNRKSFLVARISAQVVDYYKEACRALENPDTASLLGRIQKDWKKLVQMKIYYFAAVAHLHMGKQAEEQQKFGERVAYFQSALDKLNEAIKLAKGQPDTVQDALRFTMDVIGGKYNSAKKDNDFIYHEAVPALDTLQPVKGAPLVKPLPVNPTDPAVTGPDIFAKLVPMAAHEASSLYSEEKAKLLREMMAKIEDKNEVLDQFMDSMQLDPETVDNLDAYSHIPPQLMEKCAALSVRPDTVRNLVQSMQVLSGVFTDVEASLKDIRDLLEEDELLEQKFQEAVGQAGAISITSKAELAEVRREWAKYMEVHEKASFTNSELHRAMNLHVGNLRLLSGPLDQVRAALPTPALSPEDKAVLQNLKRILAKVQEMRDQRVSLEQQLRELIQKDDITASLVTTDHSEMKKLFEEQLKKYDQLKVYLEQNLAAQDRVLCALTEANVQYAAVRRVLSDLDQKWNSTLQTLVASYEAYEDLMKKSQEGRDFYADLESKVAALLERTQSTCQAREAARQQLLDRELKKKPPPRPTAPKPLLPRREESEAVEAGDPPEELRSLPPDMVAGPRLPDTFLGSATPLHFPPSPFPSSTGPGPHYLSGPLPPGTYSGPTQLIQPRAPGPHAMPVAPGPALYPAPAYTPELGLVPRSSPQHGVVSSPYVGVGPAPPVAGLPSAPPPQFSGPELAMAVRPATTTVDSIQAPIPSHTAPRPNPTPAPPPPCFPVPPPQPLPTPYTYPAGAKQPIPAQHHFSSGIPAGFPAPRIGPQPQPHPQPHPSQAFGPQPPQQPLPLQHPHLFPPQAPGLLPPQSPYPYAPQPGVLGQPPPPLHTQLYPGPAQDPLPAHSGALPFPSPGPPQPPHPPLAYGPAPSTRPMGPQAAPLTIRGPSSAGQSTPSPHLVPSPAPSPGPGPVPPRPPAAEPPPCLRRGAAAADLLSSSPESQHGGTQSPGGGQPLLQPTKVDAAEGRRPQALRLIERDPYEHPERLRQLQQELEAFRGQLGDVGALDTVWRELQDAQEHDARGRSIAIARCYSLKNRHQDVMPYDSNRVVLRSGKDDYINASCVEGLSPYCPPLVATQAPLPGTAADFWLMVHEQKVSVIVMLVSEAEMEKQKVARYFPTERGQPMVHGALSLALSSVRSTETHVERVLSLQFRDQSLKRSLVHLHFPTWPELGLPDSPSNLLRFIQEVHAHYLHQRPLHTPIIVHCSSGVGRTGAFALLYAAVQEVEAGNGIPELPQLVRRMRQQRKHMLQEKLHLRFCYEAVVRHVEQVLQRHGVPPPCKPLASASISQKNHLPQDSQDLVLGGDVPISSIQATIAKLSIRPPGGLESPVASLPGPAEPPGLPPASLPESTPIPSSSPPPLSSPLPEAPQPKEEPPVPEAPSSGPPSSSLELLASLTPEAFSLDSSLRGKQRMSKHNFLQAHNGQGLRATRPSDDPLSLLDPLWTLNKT
UniProt A2A3K4, 2-27: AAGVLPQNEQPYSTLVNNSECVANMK

Compound in assay [2]: ClCC(=O)N[C@H]1CCCc2ccccc12
The description is as above. Conditions: treatment time: 4 h, cell line lysate: HEK293T. The procedure: as §1

The list shows a part of the results. The data scatter; read single values as rough.

Regarding RABGGTB C40 (UniProt P53611), the “log2 mean competition ratio” value is -0.22 in assay [1] (50 µM), -0.165 in assay [1] (200 µM), -0.107 in assay [2] (50 µM) and -0.107 in assay [2] (200 µM).
As for PTEN C71 (UniProt P60484), the “log2 mean competition ratio” value is 0.224 in assay [1] (50 µM), 0.0242 in assay [1] (200 µM), 0.176 in assay [2] (50 µM) and 0.116 in assay [2] (200 µM).
As to PTPN1 C344 (UniProt P18031), the “log2 mean competition ratio” value was 0.0143 in assay [1] (50 µM), -0.129 in assay [1] (200 µM), -0.101 in assay [2] (50 µM) and -0.0992 in assay [2] (200 µM).
On the same counts, the results for PRRC2B C1212 are 0.256, 0.419, 0.254 and 0.289.
For RAD51B C185 (UniProt O15315), in that order: -0.162, 0.0206, -0.346 and 0.00461.
On the same counts, the results for PTP4A1 C49 (UniProt Q93096) are 0.0799, 0.152, -0.333 and 0.00604.
As to QSER1 C235, the “log2 mean competition ratio” value in assay [1] (50 µM) was -0.544; in assay [1] (200 µM), 0.0254; in assay [2] (50 µM) it was -0.178; in assay [2] (200 µM), 0.126.
For RAB3B C137 (UniProt P20337), in that order: -0.142, 0.0406, 0.0952 and 0.00244.
On the same counts, the results for PTPN3 C549 (UniProt P26045) are -0.258, -0.0211, -0.306 and -0.0634.
In the case of RAD50 C1296, the “log2 mean competition ratio” value in assay [1] (50 µM) is -0.116; in assay [1] (200 µM) it was -0.00449; in assay [2] (50 µM), -0.508; in assay [2] (200 µM) it was 0.0681.
On the same counts, the results for RAD21 C35 (UniProt O60216) are -0.0735, 0.416, 0.00793 and 0.193.
On the same counts, the results for PXK C196 (UniProt Q7Z7A4) are 0.122, -0.209, -0.256 and -0.15.
On the same counts, the results for PSME4 C1267 (UniProt Q14997) are 0.0429, -0.369, -0.237 and -0.316.
Consider PRR14L C1730 (UniProt Q5THK1), for which the “log2 mean competition ratio” value in assay [1] (50 µM) is 0.0323; in assay [1] (200 µM) it was -0.0589; in assay [2] (50 µM), -0.0743; in assay [2] (200 µM), 0.348.
Regarding PRR14L C92 (UniProt Q5THK1), the “log2 mean competition ratio” value in assay [1] (50 µM) is -0.0345; in assay [1] (200 µM) it was 0.0528; in assay [2] (50 µM), 0.798; in assay [2] (200 µM), 0.159.
On the same counts, the results for PWWP2A C654 (UniProt Q96N64) are 0.497, 0.0719, -0.106 and -0.329.
On the same counts, the results for PUS1 C125 (UniProt Q9Y606) are 0.345, -0.0819, -0.0172 and -0.148.
With PTPRG C858 (UniProt P23470), the “log2 mean competition ratio” value was -0.194 in assay [1] (50 µM), -0.108 in assay [1] (200 µM), -0.456 in assay [2] (50 µM) and -0.322 in assay [2] (200 µM).
PSMD1 C898: the “log2 mean competition ratio” value in assay [1] (50 µM) is -0.143; in assay [1] (200 µM), 0.0481; in assay [2] (50 µM), 0.249; in assay [2] (200 µM) it was 0.136.
On the same counts, the results for PTPN23 C697 (UniProt Q9H3S7) are -0.0703, 0.0824, -0.0626 and 0.0516.
Regarding PTPDC1 C22 (UniProt A2A3K4), the “log2 mean competition ratio” value was -0.275 in assay [1] (50 µM), -0.313 in assay [1] (200 µM), 0.226 in assay [2] (50 µM) and 0.496 in assay [2] (200 µM).

For the origin of these results see the supplement of paper PMC11732987, “Enantioselective OTUD7B fragment discovery through chemoproteomics screening and high-throughput optimisation” (Communications Chemistry, 2025).
